The record followed here is US20130323171A1, “RADIOLABELED BBN ANALOGS FOR PET IMAGING OF GASTRIN-RELEASING PEPTIDE RECEPTORS” (priority 2012, published 2013).

Sequences of proteins named here, by UniProt entry; tags and fusion partners are left off.
UniProt P30550, whole entry: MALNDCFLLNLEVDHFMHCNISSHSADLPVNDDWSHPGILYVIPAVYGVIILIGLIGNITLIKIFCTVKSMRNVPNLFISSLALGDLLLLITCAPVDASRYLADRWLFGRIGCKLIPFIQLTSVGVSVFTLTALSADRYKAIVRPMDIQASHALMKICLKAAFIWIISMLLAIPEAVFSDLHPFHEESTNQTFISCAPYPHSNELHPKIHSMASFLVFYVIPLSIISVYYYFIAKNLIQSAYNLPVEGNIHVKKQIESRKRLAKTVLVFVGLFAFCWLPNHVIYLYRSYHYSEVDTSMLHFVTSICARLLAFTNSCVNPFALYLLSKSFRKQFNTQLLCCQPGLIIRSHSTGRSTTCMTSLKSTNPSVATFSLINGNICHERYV

The match of structure and compound is tentative.

The target of this experiment is GRPR (Homo sapiens, UniProt P30550). The experiment can be described thus: Cell-binding assay: inhibition of ^125I-[Tyr4]BBN binding on PC3 cells. The settings on record: read-out: IC50 (inhibition of GRPR-binding of ^125I-[Tyr4]BBN), 0.06 nM radioligand, 37° C., 1 h, n=4, mean±SD. Here is the method: The cell-binding assay was performed similarly as previously reported (18, 35). Briefly, the PC3 cells (3×10^4) were incubated with 0.06 nM ^125I-[Tyr4]BBN and varying concentrations of peptides in the binding buffer (RPMI 1640+2 mg/mL BSA+5.2 mg/mL HEPES) at 37° C. for 1 h. The cell-bound, residual radioactivity after washing was determined by gamma counting. The IC50 values, the concentration of competitor required to inhibit 50% of the radioligand binding, were determined by non-linear regression using GraphPad Prism (GraphPad Software, Inc.). The experiments were performed in quadruplicate.
All of these peptides inhibited the GRPR-binding of ^125I-[Tyr4]BBN on the PC3 cells in a concentration-dependent manner. The IC50 values for RM1, NODAGA-RM1, AMBA and NODAGA-AMBA were 0.25±0.04, 4.6±1.0, 0.17±0.07 and 1.9±0.50 nM (n=4), respectively.

`CC(C)C[C@H](NC(=O)C[C@H](O)[C@H](CC(C)C)NC(=O)[C@H](Cc1c[nH]cn1)NC(=O)CNC(=O)[C@@H](NC(=O)[C@H](C)NC(=O)[C@H](Cc1c[nH]c2ccccc12)NC(=O)[C@H](CCC(N)=O)NC(=O)[C@@H](Cc1ccccc1)NC(=O)c1ccc(NC(=O)CNC(=O)CCC(C(=O)O)N2CCN(CC(=O)O)CCN(CC(=O)O)CC2)cc1)C(C)C)C(N)=O` (stereo partly shown): the 50% inhibitory concentration (IC50) worked out at 4.6 nM.
